From the supplement of paper PMC10849652
Some of the results follow.

Protein sequences, listed by entry. Tags and fused reporters are not part of them. Lines headed by an entry give the natural chain unless they say otherwise; changes in a name come on top.
UniProt Q96H78: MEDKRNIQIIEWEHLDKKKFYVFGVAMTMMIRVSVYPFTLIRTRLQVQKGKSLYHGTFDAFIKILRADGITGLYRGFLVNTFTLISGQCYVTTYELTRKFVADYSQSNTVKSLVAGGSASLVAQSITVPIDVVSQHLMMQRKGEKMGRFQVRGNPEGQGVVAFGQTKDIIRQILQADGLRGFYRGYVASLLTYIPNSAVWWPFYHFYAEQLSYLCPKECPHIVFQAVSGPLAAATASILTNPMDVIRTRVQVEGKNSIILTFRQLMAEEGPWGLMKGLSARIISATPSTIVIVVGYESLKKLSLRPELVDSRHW
UniProt P02730: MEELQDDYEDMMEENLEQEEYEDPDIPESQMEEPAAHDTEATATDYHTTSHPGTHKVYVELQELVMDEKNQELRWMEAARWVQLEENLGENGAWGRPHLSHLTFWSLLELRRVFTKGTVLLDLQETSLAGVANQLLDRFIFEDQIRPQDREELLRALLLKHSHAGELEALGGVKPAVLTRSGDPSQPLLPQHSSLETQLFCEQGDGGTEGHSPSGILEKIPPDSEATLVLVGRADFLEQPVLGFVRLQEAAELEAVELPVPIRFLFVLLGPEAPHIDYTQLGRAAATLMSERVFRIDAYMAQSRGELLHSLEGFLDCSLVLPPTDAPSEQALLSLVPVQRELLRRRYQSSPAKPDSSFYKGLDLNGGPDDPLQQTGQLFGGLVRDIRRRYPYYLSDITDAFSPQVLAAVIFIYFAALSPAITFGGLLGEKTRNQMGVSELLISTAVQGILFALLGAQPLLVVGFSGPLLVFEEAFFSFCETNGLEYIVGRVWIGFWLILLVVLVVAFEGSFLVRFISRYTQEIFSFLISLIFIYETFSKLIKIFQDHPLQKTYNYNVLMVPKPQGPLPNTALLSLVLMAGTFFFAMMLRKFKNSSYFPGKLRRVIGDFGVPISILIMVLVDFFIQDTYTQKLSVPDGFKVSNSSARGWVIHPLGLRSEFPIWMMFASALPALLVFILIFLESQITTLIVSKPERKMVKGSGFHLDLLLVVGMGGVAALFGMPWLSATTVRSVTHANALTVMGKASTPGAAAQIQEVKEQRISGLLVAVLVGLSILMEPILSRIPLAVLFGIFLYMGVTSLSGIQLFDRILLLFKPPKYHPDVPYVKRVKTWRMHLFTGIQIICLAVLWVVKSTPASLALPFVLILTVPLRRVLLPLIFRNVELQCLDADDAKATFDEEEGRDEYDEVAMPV
UniProt Q9BWU0: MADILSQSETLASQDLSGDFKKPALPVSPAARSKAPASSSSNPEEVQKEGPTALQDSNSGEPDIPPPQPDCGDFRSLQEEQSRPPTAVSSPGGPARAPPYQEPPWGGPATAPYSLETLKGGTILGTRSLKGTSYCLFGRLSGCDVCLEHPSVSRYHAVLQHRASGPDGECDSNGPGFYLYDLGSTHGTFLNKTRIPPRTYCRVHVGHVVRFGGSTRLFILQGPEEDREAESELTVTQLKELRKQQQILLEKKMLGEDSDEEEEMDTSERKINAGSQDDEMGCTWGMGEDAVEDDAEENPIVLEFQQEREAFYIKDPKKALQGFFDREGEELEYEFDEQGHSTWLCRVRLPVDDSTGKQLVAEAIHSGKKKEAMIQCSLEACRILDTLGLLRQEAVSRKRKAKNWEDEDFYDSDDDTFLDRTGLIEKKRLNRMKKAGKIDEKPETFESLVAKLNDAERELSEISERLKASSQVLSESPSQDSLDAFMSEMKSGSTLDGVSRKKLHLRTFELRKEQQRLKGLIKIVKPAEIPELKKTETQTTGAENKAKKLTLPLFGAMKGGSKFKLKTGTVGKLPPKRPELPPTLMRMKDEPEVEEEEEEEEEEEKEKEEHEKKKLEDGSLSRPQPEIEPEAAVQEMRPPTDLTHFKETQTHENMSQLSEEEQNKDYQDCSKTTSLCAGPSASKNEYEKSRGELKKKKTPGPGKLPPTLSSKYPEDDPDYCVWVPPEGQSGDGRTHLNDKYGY
UniProt L0R6Q1: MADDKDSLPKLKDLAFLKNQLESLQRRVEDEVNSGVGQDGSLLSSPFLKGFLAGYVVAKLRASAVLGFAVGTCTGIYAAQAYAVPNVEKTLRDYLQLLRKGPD
UniProt Q9H936: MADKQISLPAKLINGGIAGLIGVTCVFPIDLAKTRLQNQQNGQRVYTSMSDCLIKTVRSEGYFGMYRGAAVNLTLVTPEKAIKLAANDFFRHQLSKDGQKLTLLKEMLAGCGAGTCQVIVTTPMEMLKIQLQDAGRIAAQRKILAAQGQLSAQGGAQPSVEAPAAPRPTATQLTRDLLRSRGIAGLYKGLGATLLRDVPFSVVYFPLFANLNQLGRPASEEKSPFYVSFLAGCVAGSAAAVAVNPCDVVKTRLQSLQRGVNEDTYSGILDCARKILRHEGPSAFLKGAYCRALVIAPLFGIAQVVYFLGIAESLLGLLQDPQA
UniProt Q8TB61: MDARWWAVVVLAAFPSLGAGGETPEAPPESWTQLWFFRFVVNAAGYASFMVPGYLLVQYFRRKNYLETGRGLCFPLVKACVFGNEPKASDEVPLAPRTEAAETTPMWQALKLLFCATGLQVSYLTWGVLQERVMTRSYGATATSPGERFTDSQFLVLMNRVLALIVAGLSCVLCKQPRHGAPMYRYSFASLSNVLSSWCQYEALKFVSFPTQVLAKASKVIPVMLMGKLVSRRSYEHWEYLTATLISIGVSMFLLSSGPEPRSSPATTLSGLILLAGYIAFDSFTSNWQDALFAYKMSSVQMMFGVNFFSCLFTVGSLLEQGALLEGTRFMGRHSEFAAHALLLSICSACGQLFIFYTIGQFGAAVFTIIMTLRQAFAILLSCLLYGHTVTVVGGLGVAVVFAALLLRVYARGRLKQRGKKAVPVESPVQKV
UniProt P31641: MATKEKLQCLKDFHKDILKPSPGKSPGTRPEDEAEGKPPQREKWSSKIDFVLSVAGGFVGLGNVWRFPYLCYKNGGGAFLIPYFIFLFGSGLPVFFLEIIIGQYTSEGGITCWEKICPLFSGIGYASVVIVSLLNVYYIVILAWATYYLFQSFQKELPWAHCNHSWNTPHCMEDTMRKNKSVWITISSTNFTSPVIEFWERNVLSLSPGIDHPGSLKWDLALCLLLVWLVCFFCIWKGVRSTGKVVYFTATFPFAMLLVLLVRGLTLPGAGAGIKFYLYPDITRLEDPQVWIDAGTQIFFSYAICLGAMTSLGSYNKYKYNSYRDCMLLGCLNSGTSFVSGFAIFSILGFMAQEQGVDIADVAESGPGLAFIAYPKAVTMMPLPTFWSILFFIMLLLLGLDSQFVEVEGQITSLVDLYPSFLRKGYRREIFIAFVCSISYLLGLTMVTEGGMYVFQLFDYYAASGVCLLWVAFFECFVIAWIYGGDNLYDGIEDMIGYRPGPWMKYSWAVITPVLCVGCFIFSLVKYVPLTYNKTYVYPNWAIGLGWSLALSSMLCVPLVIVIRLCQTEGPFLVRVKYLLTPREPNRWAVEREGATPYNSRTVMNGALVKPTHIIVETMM
UniProt Q99808: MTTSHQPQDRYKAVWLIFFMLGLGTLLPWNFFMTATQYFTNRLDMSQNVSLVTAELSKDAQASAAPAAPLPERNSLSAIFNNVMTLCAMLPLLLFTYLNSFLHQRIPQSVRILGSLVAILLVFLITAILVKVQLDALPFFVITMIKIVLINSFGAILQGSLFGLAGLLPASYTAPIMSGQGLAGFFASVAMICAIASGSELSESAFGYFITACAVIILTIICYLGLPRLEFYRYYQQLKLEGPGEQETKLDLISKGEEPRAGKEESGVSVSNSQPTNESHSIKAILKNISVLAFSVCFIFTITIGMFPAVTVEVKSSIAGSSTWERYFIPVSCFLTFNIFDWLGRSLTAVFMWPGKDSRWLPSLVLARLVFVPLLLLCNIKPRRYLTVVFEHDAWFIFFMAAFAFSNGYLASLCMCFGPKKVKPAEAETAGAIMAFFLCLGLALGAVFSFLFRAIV
UniProt P48067: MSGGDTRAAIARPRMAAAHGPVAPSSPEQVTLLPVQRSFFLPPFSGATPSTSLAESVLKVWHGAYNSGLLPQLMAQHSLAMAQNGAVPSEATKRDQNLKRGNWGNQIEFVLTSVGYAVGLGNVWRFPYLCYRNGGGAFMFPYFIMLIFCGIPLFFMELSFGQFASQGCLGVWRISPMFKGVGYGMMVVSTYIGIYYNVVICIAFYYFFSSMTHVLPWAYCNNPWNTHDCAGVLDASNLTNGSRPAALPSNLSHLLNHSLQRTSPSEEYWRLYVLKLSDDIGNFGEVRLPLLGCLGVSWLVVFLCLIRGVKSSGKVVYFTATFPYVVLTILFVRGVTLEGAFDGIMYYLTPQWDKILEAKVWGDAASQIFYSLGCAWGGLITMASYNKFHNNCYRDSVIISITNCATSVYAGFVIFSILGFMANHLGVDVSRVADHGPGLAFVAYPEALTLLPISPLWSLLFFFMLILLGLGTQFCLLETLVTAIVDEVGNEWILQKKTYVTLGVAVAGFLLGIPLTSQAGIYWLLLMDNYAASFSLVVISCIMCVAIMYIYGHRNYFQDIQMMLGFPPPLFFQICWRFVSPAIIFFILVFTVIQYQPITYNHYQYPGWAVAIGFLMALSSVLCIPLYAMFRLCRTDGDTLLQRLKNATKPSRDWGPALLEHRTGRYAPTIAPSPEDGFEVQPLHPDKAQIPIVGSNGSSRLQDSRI
UniProt O43808: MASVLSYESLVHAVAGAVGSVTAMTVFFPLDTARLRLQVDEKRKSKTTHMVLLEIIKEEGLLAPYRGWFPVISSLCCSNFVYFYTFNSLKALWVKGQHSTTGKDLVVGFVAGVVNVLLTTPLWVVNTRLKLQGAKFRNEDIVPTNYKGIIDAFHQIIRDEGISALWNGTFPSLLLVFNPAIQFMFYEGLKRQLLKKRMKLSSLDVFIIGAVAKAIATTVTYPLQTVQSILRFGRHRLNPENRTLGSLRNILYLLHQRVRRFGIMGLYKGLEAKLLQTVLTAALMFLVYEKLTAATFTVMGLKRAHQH
UniProt Q9Y2E8: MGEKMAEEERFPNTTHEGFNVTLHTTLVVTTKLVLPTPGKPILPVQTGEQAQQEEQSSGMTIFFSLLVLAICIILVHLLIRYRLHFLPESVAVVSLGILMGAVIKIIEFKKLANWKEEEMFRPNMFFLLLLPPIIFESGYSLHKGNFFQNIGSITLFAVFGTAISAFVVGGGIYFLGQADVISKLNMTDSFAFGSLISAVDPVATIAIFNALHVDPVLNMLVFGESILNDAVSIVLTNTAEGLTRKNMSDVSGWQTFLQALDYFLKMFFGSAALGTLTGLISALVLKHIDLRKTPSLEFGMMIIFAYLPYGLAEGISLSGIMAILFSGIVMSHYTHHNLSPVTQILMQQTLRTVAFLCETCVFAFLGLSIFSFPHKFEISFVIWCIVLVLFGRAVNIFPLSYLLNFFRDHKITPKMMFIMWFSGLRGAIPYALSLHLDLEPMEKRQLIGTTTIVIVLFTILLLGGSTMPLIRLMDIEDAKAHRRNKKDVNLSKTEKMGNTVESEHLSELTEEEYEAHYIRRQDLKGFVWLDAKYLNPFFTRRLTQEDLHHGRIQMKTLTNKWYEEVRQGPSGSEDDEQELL
UniProt Q13485: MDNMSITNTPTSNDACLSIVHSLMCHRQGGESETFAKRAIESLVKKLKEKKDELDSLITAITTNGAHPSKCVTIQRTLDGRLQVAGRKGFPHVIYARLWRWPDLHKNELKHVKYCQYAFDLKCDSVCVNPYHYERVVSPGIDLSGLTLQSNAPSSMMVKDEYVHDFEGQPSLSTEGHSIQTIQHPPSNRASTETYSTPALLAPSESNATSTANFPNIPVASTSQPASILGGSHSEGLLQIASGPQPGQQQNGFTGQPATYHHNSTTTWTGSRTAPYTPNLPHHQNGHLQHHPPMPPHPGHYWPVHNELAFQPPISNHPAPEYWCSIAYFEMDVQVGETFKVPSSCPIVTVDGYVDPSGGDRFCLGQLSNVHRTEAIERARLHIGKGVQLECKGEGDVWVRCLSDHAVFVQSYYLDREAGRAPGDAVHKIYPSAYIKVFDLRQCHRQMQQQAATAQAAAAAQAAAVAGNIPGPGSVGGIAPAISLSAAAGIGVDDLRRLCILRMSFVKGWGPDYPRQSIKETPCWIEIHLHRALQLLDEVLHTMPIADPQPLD
UniProt Q6YBV0: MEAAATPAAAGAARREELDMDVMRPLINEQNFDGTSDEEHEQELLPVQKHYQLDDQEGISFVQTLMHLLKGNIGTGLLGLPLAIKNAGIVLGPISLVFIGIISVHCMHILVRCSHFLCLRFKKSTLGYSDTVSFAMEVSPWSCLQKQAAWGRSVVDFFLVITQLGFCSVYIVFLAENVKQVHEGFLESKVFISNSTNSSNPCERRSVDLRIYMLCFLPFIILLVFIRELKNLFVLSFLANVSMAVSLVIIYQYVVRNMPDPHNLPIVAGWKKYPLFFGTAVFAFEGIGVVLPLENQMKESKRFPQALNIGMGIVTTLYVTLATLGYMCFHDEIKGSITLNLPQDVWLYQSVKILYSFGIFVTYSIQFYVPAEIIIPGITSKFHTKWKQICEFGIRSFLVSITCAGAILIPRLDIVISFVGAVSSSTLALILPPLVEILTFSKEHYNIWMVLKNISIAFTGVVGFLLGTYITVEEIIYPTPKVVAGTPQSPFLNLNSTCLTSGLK

Columns and labels:
Assay in all cases: log2 fold change, soluble protein after heating vs DMSO (PISA); higher = thermal stabilisation; K562 lysate, 10 uM; active = over 0.2 and 3.5 SD of the protein, either way, in both replicates (recomputed)
[1] = compound: CS(=O)(=O)CCNCc1ccc(-c2ccc3ncnc(Nc4ccc(OCc5cccc(F)c5)c(Cl)c4)c3c2)o1 [lapatinib]
Summary of the method: (§1)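 A 30 min treatment with 10 μM compound was applied to crude K562 extract at 1 mg/mL protein in PBS pH 7.4 with 1 mM MgCl2. Heating for 3 min spanned 48°C-58°C, after which aliquots were pooled, adjusted to 0.5% NP-40 at 4°C and spun at 21,000xg for 90 min. TMTpro 16plex LC-MS/MS of the supernatant, with channel sums equalised, gave values recorded as log-two fold change in thermal stability against solvent controls, from duplicates.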

[2] = compound: CS(=O)(=O)N1CCN(Cc2cc3nc(-c4cccc5[nH]ncc45)nc(N4CCOCC4)c3s2)CC1 [pictilisib]
Summary of the method: as §1

[3] = compound: C[C@@H](Oc1cc(-c2cnn(C3CCNCC3)c2)cnc1N)c1c(Cl)ccc(F)c1Cl [crizotinib]
Summary of the method: as §1

[4] = compound: C[C@H](C1=CC=C(C=C1)C(=O)NC2=C3C=CNC3=NC=C2)N
Summary of the method: as §1

[5] = compound: C[C@H](Nc1ncnc2nc[nH]c12)c1cc2cccc(Cl)c2c(=O)n1-c1ccccc1 [duvelisib]
Summary of the method: as §1

[6] = compound: Cc1cc(Nc2cc(CN3CCOCC3)c3nc(C)c(Cc4ccc(Cl)cc4F)n3n2)n[nH]1 [gandotinib]
Summary of the method: as §1

[7] = compound: Cc1cc(Nc2cc(N3CCN(C)CC3)nc(Sc3ccc(NC(=O)C4CC4)cc3)n2)n[nH]1 [tozasertib]
Summary of the method: as §1

[8] = compound: Cc1ccc(-n2nc(C(C)(C)C)cc2NC(=O)Nc2ccc(OCCN3CCOCC3)c3ccccc23)cc1 [doramapimod]
Summary of the method: as §1

[9] = compound: Cc1ccc(NC(=O)c2ccc(CN3CC[C@H](N(C)C)C3)c(C(F)(F)F)c2)cc1Nc1nccc(-c2cncnc2)n1 [bafetinib]
Summary of the method: as §1

[10] = compound: Cc1cccc(CC(=O)N2CCc3c2ccc(-c2cn(C)c4ncnc(N)c24)c3F)n1
Summary of the method: as §1

Row | Target | log2 fold change [1] | log2 fold change [2] | log2 fold change [3] | log2 fold change [4] | log2 fold change [5] | log2 fold change [6] | log2 fold change [7] | log2 fold change [8] | log2 fold change [9] | log2 fold change [10]
1 | SLC25A44 (UniProt Q96H78) | inactive: -0.031 | inactive: -0.014 | inactive: -0.034 | inactive: -0.069 | inactive: 0.233 | inactive: 0.047 | inactive: -0.008 | inactive: -0.01 | inactive: -0.037 | inactive: 0.166
2 | SLC33A1 (UniProt O00400) | inactive: -0.005 | inactive: -0.013 | inactive: 0.028 | inactive: -0.035 | inactive: 0.018 | inactive: 0.069 | inactive: 0.006 | inactive: -0.017 | inactive: -0.009 | inactive: 0.004
3 | SMAP2 (UniProt Q8WU79) | inactive: -0.017 | inactive: -0.164 | inactive: 0.102 | inactive: 0.031 | inactive: -0.008 | inactive: -0.008 | inactive: 0.054 | inactive: -0.019 | inactive: 0.051 | inactive: -0.032
4 | SLC4A1 (UniProt P02730) | inactive: -0.097 | inactive: 0.023 | inactive: 0.015 | inactive: -0.053 | inactive: 0.045 | inactive: -0.027 | inactive: -0.116 | inactive: 0.012 | inactive: -0.075 | inactive: 0.076
5 | SLC4A1AP (UniProt Q9BWU0) | inactive: 0.005 | inactive: 0.004 | inactive: -0.006 | inactive: 0.042 | inactive: 0.023 | inactive: 0.021 | inactive: -0.025 | inactive: 0.014 | inactive: -0.009 | inactive: -0.019
6 | SLC27A2 (UniProt O14975) | inactive: 0.063 | inactive: -0.049 | inactive: -0.092 | inactive: -0.067 | inactive: 0.031 | inactive: 0.286 | inactive: 0.117 | inactive: 0.064 | inactive: 0.015 | inactive: -0.014
7 | SLC35A4 (UniProt L0R6Q1) | inactive: 0.06 | inactive: 0.02 | inactive: -0.084 | inactive: -0.066 | inactive: 0 | inactive: 0.095 | inactive: 0.051 | inactive: 0.05 | inactive: 0.035 | inactive: 0.091
8 | SLC30A1 (UniProt Q9Y6M5) | inactive: -0.029 | inactive: -0.013 | inactive: 0.003 | inactive: -0.049 | inactive: 0.026 | inactive: 0.07 | inactive: 0.021 | inactive: -0.005 | inactive: -0.007 | inactive: 0.006
9 | SLC25A22 (UniProt Q9H936) | inactive: 0.003 | inactive: 0.003 | inactive: 0.041 | inactive: -0.03 | inactive: -0.012 | inactive: -0.004 | inactive: 0.017 | inactive: 0.011 | inactive: -0.015 | inactive: 0.023
10 | SLC5A3 (UniProt P53794) | inactive: 0.008 | inactive: -0.087 | inactive: -0.017 | inactive: 0.141 | inactive: 0.022 | inactive: -0.011 | inactive: 0.004 | inactive: 0 | inactive: 0.013 | inactive: -0.06
11 | SLC35E1 (UniProt Q96K37) | inactive: -0.048 | inactive: 0.061 | inactive: 0.018 | inactive: -0.071 | inactive: 0.021 | inactive: -0.031 | inactive: -0.125 | inactive: 0.019 | inactive: -0.07 | inactive: 0.027
12 | SLC25A13 isoform 2 (UniProt Q9UJS0) | inactive: 0.005 | inactive: -0.013 | inactive: 0.016 | inactive: -0.079 | inactive: -0.006 | inactive: 0.043 | inactive: -0.017 | inactive: -0.018 | inactive: 0.005 | inactive: 0.018
13 | SLC25A1 (UniProt P53007) | inactive: -0.039 | inactive: 0.006 | inactive: 0.013 | inactive: -0.02 | inactive: -0.012 | inactive: 0.024 | inactive: -0.025 | inactive: 0.013 | inactive: -0.023 | inactive: 0.037
14 | SLC35B2 (UniProt Q8TB61) | inactive: -0.011 | inactive: -0.003 | inactive: 0.033 | inactive: -0.063 | inactive: 0.008 | inactive: 0.044 | inactive: -0.007 | inactive: -0.019 | inactive: 0.04 | inactive: 0.029
15 | SLC6A6 (UniProt P31641) | inactive: -0.02 | inactive: -0.003 | inactive: -0.043 | inactive: 0.082 | inactive: 0.04 | inactive: -0.023 | inactive: 0.029 | inactive: -0.075 | inactive: -0.023 | inactive: -0.096
16 | SLC29A1 isoform 2 (UniProt Q99808) | inactive: 0.02 | inactive: 0.038 | inactive: -0.042 | inactive: -0.216 | inactive: 0.037 | inactive: 0.082 | inactive: -0.068 | inactive: 0.027 | inactive: 0.032 | inactive: 0.023
17 | SLC6A9 isoform 2 (UniProt P48067) | inactive: -0.066 | inactive: -0.02 | inactive: -0.024 | inactive: -0.057 | inactive: 0.026 | inactive: 0.026 | inactive: 0.108 | inactive: -0.038 | inactive: -0.002 | inactive: 0.042
18 | SLC25A17 (UniProt O43808) | inactive: -0.033 | inactive: 0.015 | inactive: -0.052 | active: -0.303 | inactive: 0.029 | inactive: 0.072 | inactive: -0.069 | inactive: 0.007 | inactive: -0.066 | inactive: 0.085
19 | SLC30A5 (UniProt Q8TAD4) | inactive: -0.071 | inactive: -0.024 | inactive: -0.152 | inactive: -0.114 | inactive: 0.003 | inactive: 0.038 | inactive: -0.012 | inactive: -0.027 | inactive: -0.063 | inactive: 0.055
20 | SLC38A10 (UniProt Q9HBR0) | inactive: 0.006 | inactive: -0.069 | inactive: 0.009 | inactive: -0.136 | inactive: 0.018 | inactive: 0.068 | inactive: -0.061 | inactive: -0.087 | inactive: -0.044 | inactive: 0.091
21 | SLC9A8 isoform 2 (UniProt Q9Y2E8) | inactive: 0.025 | inactive: 0.01 | inactive: 0.064 | inactive: 0.027 | inactive: 0.038 | inactive: 0.035 | – | inactive: -0.046 | inactive: 0.014 | inactive: -0.115
22 | SLC39A1 (UniProt Q9NY26) | inactive: -0.061 | inactive: 0.054 | inactive: -0.061 | inactive: -0.434 | inactive: -0.013 | inactive: 0.179 | – | inactive: 0.102 | inactive: -0.146 | inactive: 0.337
23 | SMAD4 (UniProt Q13485) | inactive: 0.025 | inactive: -0.017 | inactive: 0.031 | inactive: -0.023 | inactive: -0.015 | inactive: 0.039 | inactive: 0.02 | inactive: -0.032 | inactive: 0.031 | inactive: -0.003
24 | SLC25A26 (UniProt Q70HW3) | inactive: 0.086 | inactive: -0.009 | inactive: 0.052 | inactive: -0.187 | inactive: 0.033 | inactive: 0.1 | inactive: 0.107 | inactive: 0.049 | inactive: -0.027 | inactive: 0.113
25 | SLC30A6 isoform 2 (UniProt Q6NXT4) | inactive: 0.115 | inactive: -0.027 | inactive: 0.009 | inactive: -0.095 | – | inactive: 0.048 | inactive: 0.114 | inactive: -0.058 | inactive: 0.034 | inactive: 0.116
26 | SLC7A6OS (UniProt Q96CW6) | inactive: 0.013 | inactive: 0.002 | inactive: 0.014 | inactive: -0.031 | inactive: -0.027 | inactive: 0.099 | inactive: 0.028 | inactive: -0.014 | inactive: -0.035 | inactive: -0.023
27 | SLC25A6 (UniProt P12236) | inactive: -0.016 | inactive: 0.003 | inactive: 0.033 | inactive: -0.068 | inactive: -0.011 | inactive: 0.04 | inactive: -0.016 | inactive: -0.017 | inactive: -0.042 | inactive: 0.038
28 | SLC35A2 isoform 4 (UniProt P78381) | inactive: 0.062 | inactive: 0.02 | inactive: 0.002 | inactive: 0.086 | inactive: -0.031 | inactive: -0.074 | inactive: -0.015 | inactive: -0.023 | inactive: 0.121 | inactive: -0.046
29 | SLC29A2 (UniProt Q14542) | inactive: -0.006 | inactive: 0.04 | inactive: -0.068 | active: -0.558 | inactive: 0.083 | inactive: 0.159 | inactive: 0.035 | inactive: -0.023 | inactive: 0.045 | inactive: 0.146
30 | SLC36A4 (UniProt Q6YBV0) | inactive: 0.013 | inactive: -0.214 | inactive: -0.04 | inactive: 0.018 | inactive: -0.121 | inactive: 0.093 | inactive: -0.044 | inactive: -0.021 | inactive: -0.005 | inactive: 0.162

As a short view, some entries already given.
Row | Target | log2 fold change [1] | log2 fold change [2] | log2 fold change [3] | log2 fold change [4] | log2 fold change [5] | log2 fold change [6] | log2 fold change [7] | log2 fold change [8] | log2 fold change [9] | log2 fold change [10]
21 | SLC9A8 isoform 2 (UniProt Q9Y2E8) | inactive: 0.025 | inactive: 0.01 | inactive: 0.064 | inactive: 0.027 | inactive: 0.038 | inactive: 0.035 | – | inactive: -0.046 | inactive: 0.014 | inactive: -0.115
22 | SLC39A1 (UniProt Q9NY26) | inactive: -0.061 | inactive: 0.054 | inactive: -0.061 | inactive: -0.434 | inactive: -0.013 | inactive: 0.179 | – | inactive: 0.102 | inactive: -0.146 | inactive: 0.337
23 | SMAD4 (UniProt Q13485) | inactive: 0.025 | inactive: -0.017 | inactive: 0.031 | inactive: -0.023 | inactive: -0.015 | inactive: 0.039 | inactive: 0.02 | inactive: -0.032 | inactive: 0.031 | inactive: -0.003
24 | SLC25A26 (UniProt Q70HW3) | inactive: 0.086 | inactive: -0.009 | inactive: 0.052 | inactive: -0.187 | inactive: 0.033 | inactive: 0.1 | inactive: 0.107 | inactive: 0.049 | inactive: -0.027 | inactive: 0.113
25 | SLC30A6 isoform 2 (UniProt Q6NXT4) | inactive: 0.115 | inactive: -0.027 | inactive: 0.009 | inactive: -0.095 | – | inactive: 0.048 | inactive: 0.114 | inactive: -0.058 | inactive: 0.034 | inactive: 0.116
